# The other results are listed elsewhere or left out.
# B1: HFR-3 (Triticum aestivum) (protein)
# chain: MKGLLLCALALAFAAVTTHAQLQSCPTRCGKQADGMECPNNLCCSKDGYCGLGVDYCSAGAGCQSGACYDNKICGAQANGTLCRNNHCCSSGGRCGYGREYCSNGCQGGPCWADLKCGHLDNGKLCPNNLCCSQYGYCGLGPEFCGTGCQNGACSTDKPCGNKANGAPCTNNYCCSQYGSCGLGKDYCGTGCQNGACN
# Tests used:
# Test in all cases: glycan array binding signal (z-score within array); higher = stronger binding
# Details in all cases: glycan notation: IUPAC condensed, linker removed
# [1] = biological target: Man(a1-2)Man(a1-3)[Man(a1-2)Man(a1-6)]Man(a1-6)[Man(a1-2)Man(a1-2)Man(a1-3)]Man(b1-4)GlcNAc(b1-4)GlcNAc
# Summary of the method: (§1)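 Negative Z-scores can be read as non-binding. The Z-score is calculated within each array and then averaged across arrays of one protein sequence at different concentrations or buffers and across linkers. Arrays, 3228 in all, were curated from the Consortium for Functional Glycomics database and kept only where the protein sequence was available.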
# [2] = biological target: Man(a1-2)Man(a1-3)[Man(a1-6)]Man(a1-6)[Man(a1-2)Man(a1-3)]Man(b1-4)GlcNAc(b1-4)GlcNAc
# Summary of the method: as §1
# [3] = biological target: Man(a1-2)Man(a1-6)[Man(a1-3)]Man(a1-6)[Man(a1-2)Man(a1-2)Man(a1-3)]Man
# Summary of the method: as §1
# [4] = biological target: Man(a1-2)Man(a1-6)[Man(a1-3)]Man(a1-6)[Man(a1-2)Man(a1-2)Man(a1-3)]Man(b1-4)GlcNAc(b1-4)GlcNAc
# Summary of the method: as §1
# [5] = biological target: Man(a1-3)[Man(a1-6)]Man
# Summary of the method: as §1
# [6] = biological target: Man(a1-3)[Man(a1-6)]Man(a1-6)[Man(a1-2)Man(a1-3)]Man(b1-4)GlcNAc(b1-4)GlcNAc
# Summary of the method: as §1
# [7] = biological target: Man(a1-3)[Man(a1-6)]Man(a1-6)[Man(a1-3)]Man
# Summary of the method: as §1
# [8] = biological target: Man(a1-3)[Man(a1-6)]Man(a1-6)[Man(a1-3)]Man(b1-4)GlcNAc(b1-4)GlcNAc
# Summary of the method: as §1
# [9] = biological target: Man(a1-3)[Man(a1-6)]Man(b1-4)GlcNAc(b1-4)GlcNAc
# Summary of the method: as §1
# [10] = biological target: Man(a1-3)[Man(a1-6)]Man(b1-4)GlcNAc(b1-4)[Fuc(a1-6)]GlcNAc
# Summary of the method: as §1
# [11] = biological target: Man(a1-6)Man
# Summary of the method: as §1
# [12] = biological target: Man(b1-4)GlcNAc
# Summary of the method: as §1
# [13] = biological target: MurNAc(b1-4)GlcNAc
# Summary of the method: as §1
# [14] = biological target: Neu5Ac(a2-3)Gal
# Summary of the method: as §1
# [15] = biological target: Neu5Ac(a2-3)Gal(b1-3)GalNAc
# Summary of the method: as §1
# [16] = biological target: Neu5Ac(a2-3)Gal(b1-3)GalNAc(b1-3)Gal(a1-4)Gal(b1-4)Glc
# Summary of the method: as §1
# [17] = biological target: Neu5Ac(a2-3)Gal(b1-3)GalNAc(b1-4)[Neu5Ac(a2-3)]Gal(b1-4)Glc
# Summary of the method: as §1
# [18] = biological target: Neu5Ac(a2-3)Gal(b1-3)GalNAc(b1-4)[Neu5Ac(a2-8)Neu5Ac(a2-3)]Gal(b1-4)Glc
# Summary of the method: as §1
# [19] = biological target: Neu5Ac(a2-3)Gal(b1-3)GalNAc6S
# Summary of the method: as §1
# [20] = biological target: Neu5Ac(a2-3)Gal(b1-3)GlcNAc
# Summary of the method: as §1
# [21] = biological target: Neu5Ac(a2-3)Gal(b1-3)GlcNAc(b1-2)Man
# Summary of the method: as §1
# [22] = biological target: Neu5Ac(a2-3)Gal(b1-3)GlcNAc(b1-2)Man(a1-3)[GlcNAc(b1-4)][Neu5Ac(a2-3)Gal(b1-3)GlcNAc(b1-2)Man(a1-6)]Man(b1-4)GlcNAc(b1-4)GlcNAc
# Summary of the method: as §1
# [23] = biological target: Neu5Ac(a2-3)Gal(b1-3)GlcNAc(b1-2)Man(a1-3)[Neu5Ac(a2-3)Gal(b1-3)GlcNAc(b1-2)Man(a1-6)]Man(b1-4)GlcNAc(b1-4)GlcNAc
# Summary of the method: as §1
# [24] = biological target: Neu5Ac(a2-3)Gal(b1-3)GlcNAc(b1-3)Gal(b1-3)GlcNAc
# Summary of the method: as §1
# [25] = biological target: Neu5Ac(a2-3)Gal(b1-3)GlcNAc(b1-3)Gal(b1-4)GlcNAc
# Summary of the method: as §1
# [26] = biological target: Neu5Ac(a2-3)Gal(b1-3)GlcNAc(b1-3)GalNAc
# Summary of the method: as §1
# [27] = biological target: Neu5Ac(a2-3)Gal(b1-3)GlcNAc(b1-4)Gal(b1-4)Glc
# Summary of the method: as §1
# [28] = biological target: Neu5Ac(a2-3)Gal(b1-3)GlcNAc(b1-6)GalNAc
# Summary of the method: as §1
# [29] = biological target: Neu5Ac(a2-3)Gal(b1-3)GlcNAc6S
# Summary of the method: as §1
# [30] = biological target: Neu5Ac(a2-3)Gal(b1-3)[Fuc(a1-4)]GlcNAc
# Summary of the method: as §1
# [31] = biological target: Neu5Ac(a2-3)Gal(b1-3)[Fuc(a1-4)]GlcNAc(b1-3)Gal(b1-3)[Fuc(a1-4)]GlcNAc
# Summary of the method: as §1
# [32] = biological target: Neu5Ac(a2-3)Gal(b1-3)[Fuc(a1-4)]GlcNAc(b1-3)Gal(b1-4)[Fuc(a1-3)]GlcNAc
# Summary of the method: as §1
# [33] = biological target: Neu5Ac(a2-3)Gal(b1-3)[GlcNAc(b1-6)]GalNAc
# Summary of the method: as §1
# [34] = biological target: Neu5Ac(a2-3)Gal(b1-3)[Neu5Ac(a2-6)]GalNAc
# Summary of the method: as §1
# [35] = biological target: Neu5Ac(a2-3)Gal(b1-3)[Neu5Ac(a2-6)]GlcNAc(b1-3)[Fuc(a1-3)[Gal(b1-4)]GlcNAc(b1-6)]Gal(b1-4)Glc
# Summary of the method: as §1
# [36] = biological target: Neu5Ac(a2-3)Gal(b1-3)]Neu5Ac(a2-3)Gal(b1-4)]GlcNAc
# Summary of the method: as §1
# [37] = biological target: Neu5Ac(a2-3)Gal(b1-4)Glc
# Summary of the method: as §1
# [38] = biological target: Neu5Ac(a2-3)Gal(b1-4)GlcNAc
# Summary of the method: as §1
# [39] = biological target: Neu5Ac(a2-3)Gal(b1-4)GlcNAc(b1-2)Man
# Summary of the method: as §1
# [40] = biological target: Neu5Ac(a2-3)Gal(b1-4)GlcNAc(b1-2)Man(a1-3)[GlcNAc(b1-4)][Neu5Ac(a2-3)Gal(b1-4)GlcNAc(b1-2)Man(a1-6)]Man(b1-4)GlcNAc(b1-4)GlcNAc
# Summary of the method: as §1
# [41] = biological target: Neu5Ac(a2-3)Gal(b1-4)GlcNAc(b1-2)Man(a1-3)[Neu5Ac(a2-3)Gal(b1-4)GlcNAc(b1-2)Man(a1-6)]Man(b1-4)GlcNAc(b1-4)GlcNAc
# Summary of the method: as §1
# [42] = biological target: Neu5Ac(a2-3)Gal(b1-4)GlcNAc(b1-2)Man(a1-3)[Neu5Ac(a2-3)Gal(b1-4)GlcNAc(b1-2)Man(a1-6)]Man(b1-4)GlcNAc(b1-4)[Fuc(a1-6)]GlcNAc
# Summary of the method: as §1
# [43] = biological target: Neu5Ac(a2-3)Gal(b1-4)GlcNAc(b1-2)Man(a1-3)[Neu5Ac(a2-6)Gal(b1-4)GlcNAc(b1-2)Man(a1-6)]Man(b1-4)GlcNAc(b1-4)GlcNAc
# Summary of the method: as §1
# [44] = biological target: Neu5Ac(a2-3)Gal(b1-4)GlcNAc(b1-2)[Neu5Ac(a2-3)Gal(b1-4)GlcNAc(b1-4)]Man(a1-3)[GlcNAc(b1-4)][Neu5Ac(a2-3)Gal(b1-4)GlcNAc(b1-2)[Neu5Ac(a2-3)Gal(b1-4)GlcNAc(b1-6)]Man(a1-6)]Man(b1-4)GlcNAc(b1-4)GlcNAc
# Summary of the method: as §1
# [45] = biological target: Neu5Ac(a2-3)Gal(b1-4)GlcNAc(b1-2)[Neu5Ac(a2-3)Gal(b1-4)GlcNAc(b1-4)]Man(a1-3)[GlcNAc(b1-4)][Neu5Ac(a2-3)Gal(b1-4)GlcNAc(b1-4)Man(a1-6)]Man(b1-4)GlcNAc(b1-4)GlcNAc
# Summary of the method: as §1
binder,measurement,setting,value
B1,glycan array binding signal (z-score),[1],0.941
same,glycan array binding signal (z-score),[2],-0.991
same,glycan array binding signal (z-score),[3],0.636
same,glycan array binding signal (z-score),[4],-1.2
same,glycan array binding signal (z-score),[5],-0.379
same,glycan array binding signal (z-score),[6],-0.653
same,glycan array binding signal (z-score),[7],2.17
same,glycan array binding signal (z-score),[8],3.89
same,glycan array binding signal (z-score),[9],0.828
same,glycan array binding signal (z-score),[10],-0.335
same,glycan array binding signal (z-score),[11],1.66
same,glycan array binding signal (z-score),[12],0.587
same,glycan array binding signal (z-score),[13],1.28
same,glycan array binding signal (z-score),[14],-0.367
same,glycan array binding signal (z-score),[15],-0.378
same,glycan array binding signal (z-score),[16],-0.628
same,glycan array binding signal (z-score),[17],-1.1
same,glycan array binding signal (z-score),[18],-0.799
same,glycan array binding signal (z-score),[19],-0.641
same,glycan array binding signal (z-score),[20],0.051
same,glycan array binding signal (z-score),[21],1.12
same,glycan array binding signal (z-score),[22],-0.749
same,glycan array binding signal (z-score),[23],-0.846
same,glycan array binding signal (z-score),[24],-0.914
same,glycan array binding signal (z-score),[25],-0.984
same,glycan array binding signal (z-score),[26],-0.784
same,glycan array binding signal (z-score),[27],-1.22
same,glycan array binding signal (z-score),[28],-0.998
same,glycan array binding signal (z-score),[29],-0.174
same,glycan array binding signal (z-score),[30],1.94
same,glycan array binding signal (z-score),[31],0.294
same,glycan array binding signal (z-score),[32],0.911
same,glycan array binding signal (z-score),[33],-0.222
same,glycan array binding signal (z-score),[34],0.141
same,glycan array binding signal (z-score),[35],-0.504
same,glycan array binding signal (z-score),[36],-1.15
same,glycan array binding signal (z-score),[37],0.95
same,glycan array binding signal (z-score),[38],-0.047
same,glycan array binding signal (z-score),[39],-0.287
same,glycan array binding signal (z-score),[40],-0.775
same,glycan array binding signal (z-score),[41],-1.67
same,glycan array binding signal (z-score),[42],0.846
same,glycan array binding signal (z-score),[43],0.904
same,glycan array binding signal (z-score),[44],-0.604
same,glycan array binding signal (z-score),[45],-1.37

# 4 entries from above, reformatted.
binder	measurement	setting	value
B1	glycan array binding signal (z-score)	[30]	1.94
same	glycan array binding signal (z-score)	[31]	0.294
same	glycan array binding signal (z-score)	[32]	0.911
same	glycan array binding signal (z-score)	[33]	-0.222

# — the supplement of paper PMC8728848
